Legend:
NCI-H226 = experiment: NCI DTP cell line screen (SRB), Non-Small Cell Lung Cancer; assay type: cell-based, human
Procedure: (§1) Screening of compounds 70 and 71 against several cancer cell lines The human tumor cell lines of the cancer screening panel are grown in RPMI 1640 medium containing 5% fetal bovine serum and 2 mM L-glutamine. For a typical screening experiment, cells are inoculated into 96 well microtiter plates in 100 μL at plating densities ranging from 5,000 to 40,000 cells/well depending on the doubling time of individual cell lines. After cell inoculation, the microtiter plates are incubated at 37° C., 5% CO2, 95% air and 100% relative humidity for 24 h prior to addition of experimental drugs.
(§2) After 24 h, two plates of each cell line are fixed in situ with TCA, to represent a measurement of the cell population for each cell line at the time of drug addition (Tz). Experimental drugs are solubilized in dimethyl sulfoxide at 400-fold the desired final maximum test concentration and stored frozen prior to use. At the time of drug addition, an aliquot of frozen concentrate is thawed and diluted to twice the desired final maximum test concentration with complete medium containing 50 μg/ml gentamicin. Additional four, 10-fold or ½ log serial dilutions are made to provide a total of five drug concentrations plus control. Aliquots of 100 μl of these different drug dilutions are added to the appropriate microtiter wells already containing 100 μl of medium, resulting in the required final drug concentrations.
(§3) Following drug addition, the plates are incubated for an additional 48 h at 37° C., 5% CO2, 95% air, and 100% relative humidity. For adherent cells, the assay is terminated by the addition of cold TCA. Cells are fixed in situ by the gentle addition of 50 μl of cold 50% (w/v) TCA (final concentration, 10% TCA) and incubated for 60 minutes at 4° C. The supernatant is discarded, and the plates are washed five times with tap water and air dried. Sulforhodamine B (SRB) solution (100 μl) at 0.4% (w/v) in 1% acetic acid is added to each well, and plates are incubated for 10 minutes at room temperature. After staining, unbound dye is removed by washing five times with 1% acetic acid and the plates are air dried. Bound stain is subsequently solubilized with 10 mM trizma base, and the absorbance is read on an automated plate reader at a wavelength of 515 nm. For suspension cells, the methodology is the same except that the assay is terminated by fixing settled cells at the bottom of the wells by gently adding 50 μl of 80% TCA (final concentration, 16% TCA). Using the seven absorbance measurements [time zero, (Tz), control growth, (C), and test growth in the presence of drug at the five concentration levels (Ti)], the percentage growth is calculated at each of the drug concentrations levels. Percentage growth inhibition is calculated as: [(Ti−Tz)/(C−Tz)]×100 for concentrations for which Ti>/=Tz [(Ti−Tz)/Tz]×100 for concentrations for which Ti<Tz
(§4) Three dose response parameters are calculated for each experimental agent. […] The drug concentration resulting in total growth inhibition (TGI) is calculated from Ti=Tz. […] Values are calculated for each of these three parameters if the level of activity is reached; however, if the effect is not reached or is exceeded, the value for that parameter is expressed as greater or less than the maximum or minimum concentration tested.
(§5) The methods described were used to test compounds 70 and 71 on a panel of sixty cell lines under a screening service provided by the Developmental Therapeutics Program at the National Institutes of Health. […]

SR = experiment: NCI DTP cell line screen (SRB), Leukemia; assay type: cell-based
Procedure: as §1, §2, §3, §4
(§6) The methods described were used to test compounds 70 and 71 on a panel of sixty cell lines under a screening service provided by the Developmental Therapeutics Program at the National Institutes of Health. Shown in FIG. 1C are 1, RPMI-8226 leukemia cells; 2; NCI-H322M non-small cell lung cancer cells; 3, HT29 colon cancer cells; 4, U251 CNS cancer cells; 5, SK-MEL-28 melanoma cancer cells; 6, SK-OV-3 ovarian cancer cells; 7, RXF 393 renal cancer cells; 8, PC-3 prostate cancer cells; 9, MDA-MB-231 breast cancer cells.

HOP-92 = experiment: NCI DTP cell line screen (SRB), Non-Small Cell Lung Cancer; assay type: cell-based
SN12C = experiment: NCI DTP cell line screen (SRB), Renal Cancer; assay type: cell-based
Procedure: as §1, §2, §3, §4, §5

PC-3 = experiment: NCI DTP cell line screen (SRB), Prostate Cancer; assay type: cell-based
Procedure: as §1, §2, §3, §4, §5

SK-OV-3 = experiment: NCI DTP cell line screen (SRB), Ovarian Cancer; assay type: cell-based, human
Procedure: as §1, §2, §3, §4, §5

OVCAR-3 = experiment: NCI DTP cell line screen (SRB), Ovarian Cancer; assay type: cell-based
Procedure: as §1, §2, §3, §4, §6

IGROV1 = experiment: NCI DTP cell line screen (SRB), Ovarian Cancer; assay type: cell-based
Procedure: as §1, §2, §3, §4, §6

OVCAR-8 = experiment: NCI DTP cell line screen (SRB), Ovarian Cancer; assay type: cell-based
Procedure: as §1, §2, §3, §4, §6

OVCAR-4 = experiment: NCI DTP cell line screen (SRB), Ovarian Cancer; assay type: cell-based
Procedure: as §1, §2, §3, §4, §6

OVCAR-5 = experiment: NCI DTP cell line screen (SRB), Ovarian Cancer; assay type: cell-based
Procedure: as §1, §2, §3, §4, §6

MDA-MB-231/ATCC = experiment: NCI DTP cell line screen (SRB), Breast Cancer; assay type: cell-based
Procedure: as §1, §2, §3, §4, §6

NCI/ADR-RES = experiment: NCI DTP cell line screen (SRB), Breast Cancer; assay type: cell-based
Procedure: as §1, §2, §3, §4, §6

SMILES: NCC(=O)Nc1ccc(-n2nc(C(F)(F)F)cc2-c2ccc3c(ccc4ccccc43)c2)cc1 [Compound 70, 2-Amino-N-{4-[5-(2-phenanthrenyl)-3-(trifluoromethyl)-1H-pyrazol-1-yl]-phenyl}-acetamide]
- Mean Optical Densities (NCI-H226; Log10 Concentration −4.0): 0.614
- Mean Optical Densities (NCI-H226; Log10 Concentration −5.0): 0.505
- Mean Optical Densities (NCI-H226; Log10 Concentration −6.0): 1.429
- Mean Optical Densities (NCI-H226; Log10 Concentration −7.0): 1.586
- Mean Optical Densities (NCI-H226; Log10 Concentration −8.0): 1.593
- Mean Optical Densities (SR; Log10 Concentration −4.0): 0.363
- Mean Optical Densities (SR; Log10 Concentration −5.0): 0.265
- Mean Optical Densities (SR; Log10 Concentration −6.0): 0.605
- Mean Optical Densities (SR; Log10 Concentration −7.0): 0.796
- Mean Optical Densities (HOP-92; Log10 Concentration −4.0): 0.267
- Mean Optical Densities (HOP-92; Log10 Concentration −5.0): 0.095
- Mean Optical Densities (HOP-92; Log10 Concentration −6.0): 1.465
- Mean Optical Densities (HOP-92; Log10 Concentration −7.0): 1.474
- Mean Optical Densities (HOP-92; Log10 Concentration −8.0): 1.509
- Mean Optical Densities (SN12C; Log10 Concentration −4.0): 0.308
- Mean Optical Densities (SN12C; Log10 Concentration −5.0): 0.203
- Mean Optical Densities (SN12C; Log10 Concentration −6.0): 1.093
- Mean Optical Densities (SN12C; Log10 Concentration −7.0): 1.194
- Mean Optical Densities (SN12C; Log10 Concentration −8.0): 1.209
- Mean Optical Densities (PC-3; Log10 Concentration −4.0): 0.108
- Mean Optical Densities (PC-3; Log10 Concentration −5.0): 0.055
- Mean Optical Densities (PC-3; Log10 Concentration −6.0): 0.593
- Mean Optical Densities (PC-3; Log10 Concentration −7.0): 0.763
- Mean Optical Densities (PC-3; Log10 Concentration −8.0): 0.910
- Mean Optical Densities (SK-OV-3; Log10 Concentration −4.0): 0.302
- Mean Optical Densities (SK-OV-3; Log10 Concentration −5.0): 0.083
- Mean Optical Densities (SK-OV-3; Log10 Concentration −6.0): 1.262
- Mean Optical Densities (SK-OV-3; Log10 Concentration −7.0): 1.597
- Mean Optical Densities (SK-OV-3; Log10 Concentration −8.0): 1.514
- Mean Optical Densities (OVCAR-3; Log10 Concentration −4.0): 0.301
- Mean Optical Densities (OVCAR-3; Log10 Concentration −5.0): 0.140
- Mean Optical Densities (OVCAR-3; Log10 Concentration −6.0): 0.816
- Mean Optical Densities (OVCAR-3; Log10 Concentration −7.0): 0.849
- Mean Optical Densities (OVCAR-3; Log10 Concentration −8.0): 0.879
- Mean Optical Densities (IGROV1; Log10 Concentration −4.0): 0.302
- Mean Optical Densities (IGROV1; Log10 Concentration −5.0): 0.235
- Mean Optical Densities (IGROV1; Log10 Concentration −6.0): 0.902
- Mean Optical Densities (IGROV1; Log10 Concentration −7.0): 1.103
- Mean Optical Densities (IGROV1; Log10 Concentration −8.0): 1.044
- Mean Optical Densities (OVCAR-8; Log10 Concentration −4.0): 0.306
- Mean Optical Densities (OVCAR-8; Log10 Concentration −5.0): 0.269
- Mean Optical Densities (OVCAR-8; Log10 Concentration −6.0): 0.755
- Mean Optical Densities (OVCAR-8; Log10 Concentration −7.0): 1.114
- Mean Optical Densities (OVCAR-8; Log10 Concentration −8.0): 1.078
- Mean Optical Densities (OVCAR-4; Log10 Concentration −4.0): 0.172
- Mean Optical Densities (OVCAR-4; Log10 Concentration −5.0): 0.093
- Mean Optical Densities (OVCAR-4; Log10 Concentration −6.0): 1.086
- Mean Optical Densities (OVCAR-4; Log10 Concentration −7.0): 1.073
- Mean Optical Densities (OVCAR-4; Log10 Concentration −8.0): 1.114
- Mean Optical Densities (OVCAR-5; Log10 Concentration −4.0): 0.149
- Mean Optical Densities (OVCAR-5; Log10 Concentration −5.0): 0.087
- Mean Optical Densities (OVCAR-5; Log10 Concentration −6.0): 1.412
- Mean Optical Densities (OVCAR-5; Log10 Concentration −7.0): 1.540
- Mean Optical Densities (OVCAR-5; Log10 Concentration −8.0): 1.480
- Mean Optical Densities (MDA-MB-231/ATCC; Log10 Concentration −4.0): 0.306
- Mean Optical Densities (MDA-MB-231/ATCC; Log10 Concentration −5.0): 0.173
- Mean Optical Densities (MDA-MB-231/ATCC; Log10 Concentration −6.0): 0.843
- Mean Optical Densities (MDA-MB-231/ATCC; Log10 Concentration −7.0): 0.889
- Mean Optical Densities (MDA-MB-231/ATCC; Log10 Concentration −8.0): 0.988
- Mean Optical Densities (NCI/ADR-RES; Log10 Concentration −4.0): 0.212
- Mean Optical Densities (NCI/ADR-RES; Log10 Concentration −5.0): 0.229
- Mean Optical Densities (NCI/ADR-RES; Log10 Concentration −6.0): 1.217
- Mean Optical Densities (NCI/ADR-RES; Log10 Concentration −7.0): 1.878
- Mean Optical Densities (NCI/ADR-RES; Log10 Concentration −8.0): 1.883

Reference: patent US8541460B2, “PDK-1/Akt signaling inhibitors” (The Ohio State University, priority 2003, dated 2013)
